# Measured data: PubChem BioAssay AID1259424 (University of Nebraska Medical Center, 2018)
# Test: 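Find knockdowns that reproduce the expression shifts seen after KSR1 loss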 (primary screen)
# Cells: human HCT116 colon cancer cells
# Knock-down reagent: siRNA pool against human genes, 50 nM
# Read-out: 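Log2 levels of six mRNAs (branched-DNA multiplex), adjusted by two reference genes and the non-targeting median, then scored against the average KSR1 knockdown pattern as Pearson r and euclidean distance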
# Reading the numbers: mean correlation with KSR1 profile and KSR1 correlation: higher = expression change more like KSR1 knockdown; mean distance from KSR1 profile: higher = expression change less like KSR1 knockdown
# The deposit covers about 14,000 reagents; below is an unselected part. 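Higher correlation or smaller distance means closer resemblance to KSR1 loss; control wells, including KSR1 knockdowns, recur on many plates.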 Reagent sequences are not shown. The record does not give: the time to read-out.
Target gene,mean correlation with KSR1 profile,mean distance from KSR1 profile,"KSR1 correlation, replicate 1","KSR1 correlation, replicate 2","KSR1 correlation, replicate 3"
FAT4,0.65,1.96,0.884,0.534,0.486
NTRK2,-0.431,1.68,0.0195,-0.727,-0.275
BCL10,-0.406,2.34,-0.253,-0.547,-0.407
FKBP11,-0.386,2.49,-0.537,0.359,-0.217
HCAR3,0.801,1.24,0.692,0.829,0.682
RBM47,-0.355,2.48,-0.569,-0.0633,-0.417
CP,0.00431,3.03,0.0737,-0.0952,-0.196
MFAP1,-0.41,3.61,-0.499,-0.363,-0.406
KLF8,-0.304,2.23,-0.157,-0.411,-0.391
URB2,-0.514,2.21,-0.52,-0.486,-0.397
TCEA3,0.057,2.05,0.534,-0.282,0.204
CDK6,-0.185,3.02,-0.113,-0.284,-0.211
ART3,-0.456,3.77,-0.574,-0.375,-0.307
MYOZ2,-0.489,3.39,-0.519,-0.538,-0.62
FICD,-0.534,1.92,-0.681,-0.785,-0.376
CYB5R4,-0.306,4.03,-0.382,-0.287,-0.365
PAPSS2,-0.395,2.41,-0.18,-0.341,-0.4
RLF,0.169,2.63,0.33,0.408,0.1
EXOSC2,-0.397,3.53,-0.212,-0.623,-0.277
CRHBP,-0.79,2.09,-0.685,-0.826,-0.611
PVT1,0.276,2.17,0.0705,0.345,0.426
CCSER1,0.67,1.9,0.649,0.595,0.636
SKAP2,0.662,0.624,0.368,0.533,0.395
CASP7,0.0527,1.4,-0.294,0.433,0.464
LGALS9,0.452,2.96,0.53,0.441,0.4
DDR2,0.39,1.75,0.433,0.546,0.117
FGF16,0.158,1.07,-0.23,0.307,0.356
IL22RA2,0.0769,1.28,0.0507,-0.0249,0.25
DENND3,-0.809,1.37,-0.526,-0.9,-0.836
LTA4H,0.306,0.956,0.652,0.0377,-0.397
SUCLA2,-0.595,3.24,-0.426,-0.728,-0.537
CLUHP3,0.468,2.63,0.372,0.323,0.344
MARCHF1,-0.744,5.35,-0.482,-0.578,-0.31
SNRNP27,-0.554,4.24,-0.416,-0.708,-0.424
CHMP2A,-0.786,4.14,-0.746,-0.666,-0.674
BEST2,0.0375,1.09,0.0792,0.0258,-0.261
MARCHF4,-0.612,3.17,-0.334,-0.542,-0.587
NPC1L1,-0.0595,3.41,-0.41,-0.427,-0.0616
NAGK,0.511,1.49,0.718,0.703,-0.0633
RAB9BP1,-0.64,3.77,-0.647,-0.679,-0.494
PSG1,0.47,1.4,0.716,0.073,0.408
ZBP1,0.765,1.22,0.389,0.583,0.745
FAM120A,-0.362,1.82,-0.427,-0.373,0.0185
DNAJB6,-0.152,2.36,-0.159,-0.124,-0.0875
GID8,-0.186,1.16,-0.432,-0.117,-0.261
DUSP16,-0.28,1.82,-0.255,-0.363,-0.221
MTHFD2L,0.927,0.601,0.771,0.86,0.754
KCNIP3,0.579,1.09,0.856,0.652,0.17
SUGT1,-0.544,3.69,-0.0575,-0.762,-0.562
CRABP2,-0.0511,2.22,-0.0575,-0.0695,-0.157
SLC7A10,-0.577,1.46,-0.491,-0.683,-0.773
CHCHD2,0.931,0.599,0.914,0.772,0.809
SYT15,0.845,2.74,0.711,0.795,0.916
SLC15A3,-0.137,1.78,-0.349,-0.0452,0.151
CKMT2,0.554,1.31,0.609,0.748,-0.232
EBPL,0.759,1.57,0.689,0.609,0.634
NOAZFP,0.0948,2.39,0.0584,-0.22,-0.234
C11orf24,-0.718,2.3,-0.688,-0.769,-0.684
KLHL25,0.0502,0.975,0.15,-0.581,0.0724
RALGAPB,-0.577,2.15,-0.447,-0.387,-0.521
CTNNBIP1,0.363,1.86,0.465,0.49,0.273
ZNF18,0.66,0.69,0.664,0.462,0.8
MOGS,-0.00944,2.82,0.0588,-0.0957,-0.149
